Assay results from the supplement of paper PMC6078165.
The reference is the same well before dosing, and untreated signal decays as well.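 Fibroblast labels denote human fibroblasts, mainly primary ones from uterus (C12385, HUF), lung (H6013), bone (Hs27A), adrenal (HADF) and skin (WS1), plus mammary HMF and breast cancer-associated Hs343T. Cancer cells are basal-like or mesenchymal-like triple-negative breast cancer lines. A hit is a response shift exceeding 3x replicate standard deviation. The tissue of the other fibroblasts is not given here.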

Tested on: MDAMB231
Assay: relative JC-1 red fluorescence (viability) vs pre-drug, coculture with fibroblast (fraction); higher = more viable cancer cells
Protocol: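 JC-1 labelled TNBC cells cocultured 1:1 (1,500 cells each) with CellTrace Violet stained primary or stromal fibroblasts in 384-well plates in FluoroBrite medium, treated with one of 42 anticancer drugs at 0.1, 1, 10 or 100 uM. JC-1 red fluorescence (mitochondrial integrity in cancer cells only) was read by plate reader every 8 h for 72 h. Values are normalised to each well's pre-drug value. The stock of one drug was tenfold lower, so its dose labels may be too high.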

O=c1[nH]cc(F)c(=O)[nH]1 [Fluorouracil]
relative JC-1 red fluorescence
Conditions	8 h	16 h	24 h	32 h	40 h	48 h	56 h	64 h	72 h
0.1 µM, coculture fibroblast: C12385	0.766	0.7088	0.642	0.598	0.535	0.503	0.459	0.456	0.435
0.1 µM, coculture fibroblast: H6013	0.881	0.785	0.7501	0.7411	0.699	0.679	0.653	0.644	0.604
0.1 µM, coculture fibroblast: H6019	0.812	0.723	0.661	0.653	0.617	0.594	0.554	0.542	0.499
0.1 µM, coculture fibroblast: H6076	0.897	0.788	0.727	0.697	0.666	0.615	0.588	0.573	0.551
0.1 µM, coculture fibroblast: H6231	0.893	0.791	0.701	0.642	0.57895	0.54734	0.506	0.487	0.4611
0.1 µM, coculture fibroblast: HADF	0.85	0.805	0.731	0.70543	0.657	0.63	0.603	0.583	0.541
0.1 µM, coculture fibroblast: HCFa	0.88	0.8	0.742	0.708	0.653	0.619	0.587	0.563	0.521
0.1 µM, coculture fibroblast: HCPF	0.926	0.847	0.777	0.762	0.711	0.684	0.649	0.618	0.604
0.1 µM, coculture fibroblast: HHSteC	0.916	0.847	0.794	0.75	0.704	0.67	0.6164	0.60153	0.55603
0.1 µM, coculture fibroblast: HMF	0.888	0.788	0.728	0.687	0.653	0.611	0.58	0.562	0.549
0.1 µM, coculture fibroblast: HPFa	0.969	0.9248	0.8742	0.821	0.805	0.764	0.707	0.684	0.634
0.1 µM, coculture fibroblast: HUF	0.8721	0.766	0.742	0.64	0.573	0.546	0.488	0.48	0.46
0.1 µM, coculture fibroblast: Hs5	0.853	0.76	0.713	0.676	0.6504	0.59717	0.5665	0.546	0.5144
0.1 µM, coculture fibroblast: Hs27A	0.882	0.818	0.773	0.748	0.691	0.628	0.626	0.595	0.542
0.1 µM, coculture fibroblast: Hs343T	0.89	0.768	0.71033	0.676	0.623	0.582	0.528	0.503	0.48
0.1 µM, coculture fibroblast: WS1	0.7522	0.661	0.603	0.526	0.478	0.457	0.42	0.412	0.389
1 µM, coculture fibroblast: C12385	0.7472	0.686	0.6656	0.609	0.548	0.522	0.487	0.484	0.471
1 µM, coculture fibroblast: H6013	0.888	0.889	0.86	0.855	0.833	0.688	0.659	0.79	0.736
1 µM, coculture fibroblast: H6019	0.745	0.673	0.615	0.581	0.531	0.506	0.463	0.443	0.405
1 µM, coculture fibroblast: H6076	0.929	0.847	0.79	0.778	0.734	0.691	0.673	0.668	0.654
1 µM, coculture fibroblast: H6231	0.886	0.803	0.788	0.735	0.67	0.74	0.699	0.704	0.641
1 µM, coculture fibroblast: HADF	0.893	0.82	0.782	0.743	0.705	0.669	0.643	0.621	0.577
1 µM, coculture fibroblast: HCFa	0.894	0.82413	0.778	0.745	0.693	0.65	0.612	0.573	0.529
1 µM, coculture fibroblast: HCPF	0.874	0.7802	0.686	0.645	0.585	0.547	0.506	0.478	0.45
1 µM, coculture fibroblast: HHSteC	0.8857	0.843	0.794	0.734	0.687	0.654	0.611	0.579	0.535
1 µM, coculture fibroblast: HMF	0.879	0.76	0.69	0.6535	0.6	0.56	0.522	0.507	0.49
1 µM, coculture fibroblast: HPFa	0.9412	0.871	0.812	0.743	0.709	0.663	0.604	0.573	0.513
1 µM, coculture fibroblast: HUF	0.863	0.785	0.804	0.694	0.631	0.613	0.569	0.564	0.541
1 µM, coculture fibroblast: Hs5	0.906	0.804	0.763	0.73	0.693	0.636	0.604	0.577	0.552
1 µM, coculture fibroblast: Hs27A	0.8727	0.794	0.757	0.7211	0.6751	0.628	0.6091	0.5879	0.5317
1 µM, coculture fibroblast: Hs343T	0.9114	0.7941	0.719	0.678	0.618	0.562	0.512	0.491	0.455
1 µM, coculture fibroblast: WS1	0.7659	0.7	0.629	0.573	0.518	0.491	0.445	0.426	0.4
